# Laboratory results reported in the supplement of paper PMC10849652.
# Amino acid sequences for entries named in this document (tags omitted). A change or cut given only in a name is not applied to a line headed by its entry.
# UniProt P50053: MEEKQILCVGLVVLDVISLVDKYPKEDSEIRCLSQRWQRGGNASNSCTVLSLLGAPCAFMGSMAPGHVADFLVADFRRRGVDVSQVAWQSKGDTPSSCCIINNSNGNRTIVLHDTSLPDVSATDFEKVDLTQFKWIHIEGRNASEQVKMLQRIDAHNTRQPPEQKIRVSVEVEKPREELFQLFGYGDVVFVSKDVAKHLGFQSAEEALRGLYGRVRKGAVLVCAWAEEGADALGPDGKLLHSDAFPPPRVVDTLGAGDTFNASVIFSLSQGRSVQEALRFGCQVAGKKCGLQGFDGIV
# UniProt Q4G0J3: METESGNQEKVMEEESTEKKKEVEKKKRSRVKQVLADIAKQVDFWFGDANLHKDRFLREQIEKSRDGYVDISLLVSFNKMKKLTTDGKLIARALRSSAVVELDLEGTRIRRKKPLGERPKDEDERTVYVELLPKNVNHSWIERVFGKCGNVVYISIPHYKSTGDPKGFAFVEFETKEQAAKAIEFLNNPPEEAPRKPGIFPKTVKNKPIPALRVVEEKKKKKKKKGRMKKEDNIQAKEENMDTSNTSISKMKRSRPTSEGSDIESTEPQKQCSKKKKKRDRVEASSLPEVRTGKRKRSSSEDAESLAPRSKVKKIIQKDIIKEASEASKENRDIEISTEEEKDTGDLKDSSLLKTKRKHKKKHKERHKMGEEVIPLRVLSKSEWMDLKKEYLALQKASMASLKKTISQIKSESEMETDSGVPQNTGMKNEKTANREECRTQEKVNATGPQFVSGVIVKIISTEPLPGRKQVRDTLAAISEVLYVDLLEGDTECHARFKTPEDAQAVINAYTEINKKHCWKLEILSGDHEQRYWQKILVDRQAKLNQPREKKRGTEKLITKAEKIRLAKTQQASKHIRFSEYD
# UniProt O43813, whole entry, looked up: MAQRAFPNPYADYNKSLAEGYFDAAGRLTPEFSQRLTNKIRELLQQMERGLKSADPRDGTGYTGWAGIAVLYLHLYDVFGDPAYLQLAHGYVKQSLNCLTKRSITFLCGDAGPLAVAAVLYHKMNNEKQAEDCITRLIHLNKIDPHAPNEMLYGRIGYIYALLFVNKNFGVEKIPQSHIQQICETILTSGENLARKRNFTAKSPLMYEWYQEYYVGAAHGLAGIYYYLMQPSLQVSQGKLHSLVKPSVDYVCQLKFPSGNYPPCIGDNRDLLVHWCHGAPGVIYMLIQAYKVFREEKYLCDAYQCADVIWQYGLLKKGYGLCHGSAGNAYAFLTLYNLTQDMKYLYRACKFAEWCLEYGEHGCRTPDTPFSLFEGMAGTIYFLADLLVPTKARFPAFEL
# UniProt P13473: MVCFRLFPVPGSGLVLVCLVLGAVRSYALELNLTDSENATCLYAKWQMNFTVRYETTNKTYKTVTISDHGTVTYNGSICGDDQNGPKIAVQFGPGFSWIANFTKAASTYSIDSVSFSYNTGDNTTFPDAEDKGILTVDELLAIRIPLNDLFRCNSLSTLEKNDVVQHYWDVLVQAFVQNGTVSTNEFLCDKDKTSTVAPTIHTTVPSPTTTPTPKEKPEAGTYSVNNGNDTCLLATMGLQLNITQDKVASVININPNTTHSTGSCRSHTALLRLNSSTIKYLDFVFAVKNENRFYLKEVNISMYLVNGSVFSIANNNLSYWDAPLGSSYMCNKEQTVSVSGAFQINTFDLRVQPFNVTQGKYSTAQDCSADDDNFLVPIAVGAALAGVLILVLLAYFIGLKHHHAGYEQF
# UniProt Q92945: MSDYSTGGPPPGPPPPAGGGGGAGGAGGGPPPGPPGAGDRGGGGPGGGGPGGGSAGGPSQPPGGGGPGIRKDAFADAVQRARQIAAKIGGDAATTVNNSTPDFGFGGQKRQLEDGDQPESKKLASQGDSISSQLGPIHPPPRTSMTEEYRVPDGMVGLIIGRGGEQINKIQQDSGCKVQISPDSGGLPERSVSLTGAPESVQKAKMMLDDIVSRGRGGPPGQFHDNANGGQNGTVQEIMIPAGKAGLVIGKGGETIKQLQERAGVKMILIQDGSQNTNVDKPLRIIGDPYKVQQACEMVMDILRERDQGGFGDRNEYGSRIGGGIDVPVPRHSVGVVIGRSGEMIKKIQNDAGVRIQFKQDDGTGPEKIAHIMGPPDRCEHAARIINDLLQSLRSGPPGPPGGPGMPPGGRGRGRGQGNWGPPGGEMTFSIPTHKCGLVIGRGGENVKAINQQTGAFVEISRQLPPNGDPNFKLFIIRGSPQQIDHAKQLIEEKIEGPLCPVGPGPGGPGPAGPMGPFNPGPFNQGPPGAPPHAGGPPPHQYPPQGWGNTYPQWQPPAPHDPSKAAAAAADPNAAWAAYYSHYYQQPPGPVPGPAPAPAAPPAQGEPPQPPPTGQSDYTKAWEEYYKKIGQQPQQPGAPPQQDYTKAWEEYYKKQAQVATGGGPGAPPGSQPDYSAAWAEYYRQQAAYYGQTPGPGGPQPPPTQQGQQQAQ
# UniProt Q9Y2Q5, whole entry, looked up: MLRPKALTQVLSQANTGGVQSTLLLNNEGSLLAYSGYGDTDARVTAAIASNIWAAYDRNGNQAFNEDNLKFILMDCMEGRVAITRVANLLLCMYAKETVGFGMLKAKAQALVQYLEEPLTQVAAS
# UniProt Q02241: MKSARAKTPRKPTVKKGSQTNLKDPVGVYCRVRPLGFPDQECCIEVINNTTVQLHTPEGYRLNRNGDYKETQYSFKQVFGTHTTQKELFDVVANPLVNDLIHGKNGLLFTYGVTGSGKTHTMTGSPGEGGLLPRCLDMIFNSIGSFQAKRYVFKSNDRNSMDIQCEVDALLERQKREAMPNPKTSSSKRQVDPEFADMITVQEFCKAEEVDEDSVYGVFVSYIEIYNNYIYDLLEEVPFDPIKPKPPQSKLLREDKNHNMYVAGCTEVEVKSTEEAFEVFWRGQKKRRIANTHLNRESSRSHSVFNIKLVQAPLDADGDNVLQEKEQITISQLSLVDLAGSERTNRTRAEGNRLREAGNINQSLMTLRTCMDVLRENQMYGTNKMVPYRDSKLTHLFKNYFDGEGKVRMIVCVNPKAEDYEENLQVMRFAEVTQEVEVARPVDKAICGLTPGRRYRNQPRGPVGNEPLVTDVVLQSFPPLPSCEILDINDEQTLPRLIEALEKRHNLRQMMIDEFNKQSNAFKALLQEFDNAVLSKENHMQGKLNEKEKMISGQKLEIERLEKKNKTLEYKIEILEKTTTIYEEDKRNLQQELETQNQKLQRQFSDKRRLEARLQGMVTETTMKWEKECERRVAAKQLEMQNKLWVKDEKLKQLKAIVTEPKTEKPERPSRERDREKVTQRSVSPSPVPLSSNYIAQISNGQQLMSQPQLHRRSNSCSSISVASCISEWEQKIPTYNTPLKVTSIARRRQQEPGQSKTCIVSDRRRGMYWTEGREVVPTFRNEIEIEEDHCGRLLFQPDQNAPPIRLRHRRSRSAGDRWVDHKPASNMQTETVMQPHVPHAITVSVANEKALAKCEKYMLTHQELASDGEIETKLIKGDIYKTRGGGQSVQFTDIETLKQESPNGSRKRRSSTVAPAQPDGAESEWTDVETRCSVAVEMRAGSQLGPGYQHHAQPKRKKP
# UniProt O00505, whole entry, looked up: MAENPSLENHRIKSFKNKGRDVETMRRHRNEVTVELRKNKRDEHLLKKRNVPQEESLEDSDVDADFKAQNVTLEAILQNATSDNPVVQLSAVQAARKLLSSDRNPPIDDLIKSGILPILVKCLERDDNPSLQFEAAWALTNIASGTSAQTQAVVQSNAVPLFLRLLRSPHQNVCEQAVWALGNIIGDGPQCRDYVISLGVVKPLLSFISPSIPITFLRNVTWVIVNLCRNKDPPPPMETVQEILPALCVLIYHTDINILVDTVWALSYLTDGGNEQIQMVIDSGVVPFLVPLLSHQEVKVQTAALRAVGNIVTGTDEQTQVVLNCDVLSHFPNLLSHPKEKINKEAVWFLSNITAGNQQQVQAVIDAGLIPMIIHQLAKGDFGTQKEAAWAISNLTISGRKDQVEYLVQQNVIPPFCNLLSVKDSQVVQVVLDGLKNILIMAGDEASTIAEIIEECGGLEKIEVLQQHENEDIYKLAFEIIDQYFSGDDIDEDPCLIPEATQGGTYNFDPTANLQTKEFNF
# UniProt Q9UGL1: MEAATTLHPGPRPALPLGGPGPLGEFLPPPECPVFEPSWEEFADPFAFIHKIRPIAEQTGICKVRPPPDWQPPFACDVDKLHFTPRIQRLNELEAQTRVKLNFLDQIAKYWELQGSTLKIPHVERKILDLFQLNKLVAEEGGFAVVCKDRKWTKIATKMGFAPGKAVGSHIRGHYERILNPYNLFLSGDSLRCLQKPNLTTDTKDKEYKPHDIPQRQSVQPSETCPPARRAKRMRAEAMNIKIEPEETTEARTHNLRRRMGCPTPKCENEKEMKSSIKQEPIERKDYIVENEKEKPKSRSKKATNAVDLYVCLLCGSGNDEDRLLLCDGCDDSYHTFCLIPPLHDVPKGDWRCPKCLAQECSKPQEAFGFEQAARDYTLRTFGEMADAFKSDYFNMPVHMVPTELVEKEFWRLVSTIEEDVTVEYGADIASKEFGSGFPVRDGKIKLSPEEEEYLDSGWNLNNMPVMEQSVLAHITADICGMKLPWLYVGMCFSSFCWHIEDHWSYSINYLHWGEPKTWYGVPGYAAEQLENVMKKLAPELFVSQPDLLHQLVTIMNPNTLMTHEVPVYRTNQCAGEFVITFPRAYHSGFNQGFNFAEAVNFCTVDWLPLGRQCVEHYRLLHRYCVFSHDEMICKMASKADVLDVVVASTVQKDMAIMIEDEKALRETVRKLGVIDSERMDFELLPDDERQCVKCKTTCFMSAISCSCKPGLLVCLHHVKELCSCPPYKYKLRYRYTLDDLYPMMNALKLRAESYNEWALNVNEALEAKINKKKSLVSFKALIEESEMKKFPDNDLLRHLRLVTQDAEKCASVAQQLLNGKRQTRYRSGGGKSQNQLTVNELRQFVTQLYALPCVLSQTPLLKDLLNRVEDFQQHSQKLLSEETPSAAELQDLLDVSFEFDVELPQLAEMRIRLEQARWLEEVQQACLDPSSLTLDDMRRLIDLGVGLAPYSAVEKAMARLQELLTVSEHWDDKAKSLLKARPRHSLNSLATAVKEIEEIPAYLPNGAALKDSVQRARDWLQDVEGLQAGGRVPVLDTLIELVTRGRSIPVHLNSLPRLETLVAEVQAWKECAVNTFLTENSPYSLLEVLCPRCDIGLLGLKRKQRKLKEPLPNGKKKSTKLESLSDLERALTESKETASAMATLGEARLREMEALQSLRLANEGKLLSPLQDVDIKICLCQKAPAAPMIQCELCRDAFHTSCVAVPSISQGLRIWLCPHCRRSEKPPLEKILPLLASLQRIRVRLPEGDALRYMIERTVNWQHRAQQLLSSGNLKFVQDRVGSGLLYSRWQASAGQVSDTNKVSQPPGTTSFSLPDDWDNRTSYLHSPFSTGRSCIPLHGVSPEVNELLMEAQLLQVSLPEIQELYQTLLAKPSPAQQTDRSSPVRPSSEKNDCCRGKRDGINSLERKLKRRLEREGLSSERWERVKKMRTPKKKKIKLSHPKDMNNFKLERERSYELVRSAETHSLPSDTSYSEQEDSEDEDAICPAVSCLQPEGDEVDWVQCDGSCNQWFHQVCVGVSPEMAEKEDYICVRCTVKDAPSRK
# UniProt Q9H0B6: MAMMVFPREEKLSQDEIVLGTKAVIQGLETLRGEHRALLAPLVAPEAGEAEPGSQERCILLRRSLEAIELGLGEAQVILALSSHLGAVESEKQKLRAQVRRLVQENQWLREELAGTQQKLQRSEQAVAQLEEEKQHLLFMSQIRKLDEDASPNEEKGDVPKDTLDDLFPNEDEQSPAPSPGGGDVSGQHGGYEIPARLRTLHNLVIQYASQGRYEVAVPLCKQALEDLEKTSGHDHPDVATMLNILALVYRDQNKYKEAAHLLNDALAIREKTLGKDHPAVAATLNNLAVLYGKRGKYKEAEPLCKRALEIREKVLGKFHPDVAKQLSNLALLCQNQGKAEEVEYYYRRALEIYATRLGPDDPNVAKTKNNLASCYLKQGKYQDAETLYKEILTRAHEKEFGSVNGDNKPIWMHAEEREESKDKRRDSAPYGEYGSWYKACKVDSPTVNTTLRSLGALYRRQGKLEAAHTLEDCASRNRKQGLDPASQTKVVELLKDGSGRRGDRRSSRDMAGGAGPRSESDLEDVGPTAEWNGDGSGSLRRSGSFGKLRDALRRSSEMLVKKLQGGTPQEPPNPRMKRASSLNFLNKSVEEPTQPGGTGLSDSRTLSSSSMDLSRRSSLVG
# UniProt Q9Y448: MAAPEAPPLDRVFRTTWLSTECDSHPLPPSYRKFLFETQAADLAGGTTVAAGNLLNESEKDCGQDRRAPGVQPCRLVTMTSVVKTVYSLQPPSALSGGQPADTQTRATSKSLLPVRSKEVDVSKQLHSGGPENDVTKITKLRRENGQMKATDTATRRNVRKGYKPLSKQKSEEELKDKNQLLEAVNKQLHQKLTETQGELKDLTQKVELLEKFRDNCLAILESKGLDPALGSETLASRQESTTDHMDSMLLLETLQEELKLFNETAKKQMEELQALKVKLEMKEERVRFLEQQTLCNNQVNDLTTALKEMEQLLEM
# The list shows a part of the results.
# Compound: Cc1cc(Nc2cc(N3CCN(C)CC3)nc(Sc3ccc(NC(=O)C4CC4)cc3)n2)n[nH]1 [tozasertib]
# Assay: log2 fold change, soluble protein after heating vs DMSO (PISA); higher = thermal stabilisation; K562 lysate, 10 uM; active = over 0.2 and 3.5 SD of the protein, either way, in both replicates (recomputed)
# Method in brief: (§1)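 Dounce homogenisation of K562 pellets in PBS pH 7.4 with 1 mM MgCl2 produced a crude extract, used at 1 mg/mL protein. Exposure to 10 μM compound lasted 30 min, and aliquots were then heated for 3 min across 48°C-58°C, pooled and brought to 0.5% NP-40 at 4°C. The supernatant after 21,000xg for 90 min was quantified by TMTpro 16plex LC-MS/MS with channel sums equalised. Duplicate values are given as log-two fold change in thermal stability relative to solvent controls.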
row,Target,log2 fold change
1,LAMTOR1 (UniProt Q6IAA8),inactive: 0.038
2,KHK isoform 2 (UniProt P50053),inactive: 0.018
3,KNL1 (UniProt Q8NG31),inactive: -0.027
4,LAMB1 (UniProt P07942),inactive: 0.025
5,KIF4A (UniProt O95239),inactive: 0.021
6,KHDRBS1 (UniProt Q07666),inactive: 0.008
7,L1RE1 (UniProt Q9UN81),inactive: -0.077
8,LARP7 isoform 3 (UniProt Q4G0J3),inactive: -0.009
9,KLC4 isoform 3 (UniProt Q9NSK0),inactive: -0.021
10,L2HGDH (UniProt Q9H9P8),inactive: 0.011
11,KSR1 (UniProt Q8IVT5),inactive: 0.017
12,KIAA0930 isoform 2 (UniProt Q6ICG6),inactive: -0.015
13,LACTB2 (UniProt Q53H82),inactive: 0.007
14,LANCL1 (UniProt O43813),inactive: 0.013
15,LAMP2 (UniProt P13473),inactive: -0.05
16,KHSRP (UniProt Q92945),inactive: 0.027
17,KDM8 isoform 3 (UniProt Q8N371),inactive: -0.021
18,KLHL18 (UniProt O94889),inactive: 0.012
19,KPTN (UniProt Q9Y664),inactive: 0.002
20,KIF15 (UniProt Q9NS87),inactive: 0.008

row,Target,log2 fold change
1,KYAT3 (UniProt Q6YP21),inactive: 0.025
2,KIF3A (UniProt Q9Y496),inactive: -0.006
3,KTI12 (UniProt Q96EK9),inactive: -0.028
4,LAMTOR2 (UniProt Q9Y2Q5),inactive: 0.028
5,KIF5B (UniProt P33176),inactive: -0.011
6,KIF23 isoform 2 (UniProt Q02241),inactive: -0.027
7,KPNA1 (UniProt P52294),inactive: 0.008
8,KPNA3 (UniProt O00505),inactive: -0.007
9,KPNA2 (UniProt P52292),inactive: 0.017
10,LAMTOR5 (UniProt O43504),inactive: 0.028
11,KNOP1 (UniProt Q1ED39),inactive: -0.085
12,KIF5A (UniProt Q12840),inactive: 0.017
13,KDM5B isoform 2 (UniProt Q9UGL1),inactive: 0.13
14,KIAA1191 (UniProt Q96A73),inactive: -0.012
15,KLC2 (UniProt Q9H0B6),inactive: 0.012
16,KIF13A isoform 4 (UniProt Q9H1H9),inactive: 0.051
17,KNSTRN (UniProt Q9Y448),inactive: 0.026
18,KRBA1 (UniProt A5PL33),inactive: -0.161
19,KXD1 (UniProt Q9BQD3),inactive: -0.014

# Compound: Cc1ccc(-n2nc(C(C)(C)C)cc2NC(=O)Nc2ccc(OCCN3CCOCC3)c3ccccc23)cc1 [doramapimod]
# Assay: as above
# Method in brief: as §1
row,Target,log2 fold change
1,LAMTOR1 (UniProt Q6IAA8),inactive: -0.086
2,KHK isoform 2 (UniProt P50053),inactive: 0.031
3,KNL1 (UniProt Q8NG31),inactive: 0.008
4,LAMB1 (UniProt P07942),inactive: 0.04
5,KIF4A (UniProt O95239),inactive: 0
6,KHDRBS1 (UniProt Q07666),inactive: -0.017
7,L1RE1 (UniProt Q9UN81),inactive: -0.007
8,LARP7 isoform 3 (UniProt Q4G0J3),inactive: 0.032
9,KLC4 isoform 3 (UniProt Q9NSK0),inactive: 0.034
10,L2HGDH (UniProt Q9H9P8),inactive: -0.034
11,KSR1 (UniProt Q8IVT5),inactive: -0.065
12,KIAA0930 isoform 2 (UniProt Q6ICG6),inactive: 0.055
13,LACTB2 (UniProt Q53H82),inactive: 0.008
14,LANCL1 (UniProt O43813),inactive: 0.022
15,LAMP2 (UniProt P13473),inactive: 0.021
16,KHSRP (UniProt Q92945),inactive: -0.011
17,KDM8 isoform 3 (UniProt Q8N371),inactive: 0.006
18,KLHL18 (UniProt O94889),inactive: 0.121
19,KPTN (UniProt Q9Y664),inactive: 0.049
20,KIF15 (UniProt Q9NS87),inactive: 0.006

row,Target,log2 fold change
1,KYAT3 (UniProt Q6YP21),inactive: -0.001
2,KIF3A (UniProt Q9Y496),inactive: 0.131
3,KTI12 (UniProt Q96EK9),inactive: -0.079
4,LAMTOR2 (UniProt Q9Y2Q5),inactive: 0.033
5,KIF5B (UniProt P33176),inactive: 0.011
6,KIF23 isoform 2 (UniProt Q02241),inactive: 0.019
7,KPNA1 (UniProt P52294),inactive: 0.033
8,KPNA3 (UniProt O00505),inactive: -0.082
9,KPNA2 (UniProt P52292),inactive: 0.003
10,LAMTOR5 (UniProt O43504),inactive: 0.002
11,KNOP1 (UniProt Q1ED39),inactive: 0.1
12,KIF5A (UniProt Q12840),inactive: -0.001
13,KDM5B isoform 2 (UniProt Q9UGL1),inactive: -0.033
14,KIAA1191 (UniProt Q96A73),inactive: 0
15,KLC2 (UniProt Q9H0B6),inactive: 0.065
16,KIF13A isoform 4 (UniProt Q9H1H9),inactive: 0.019
17,KNSTRN (UniProt Q9Y448),inactive: -0.052
18,KRBA1 (UniProt A5PL33),inactive: 0.159
19,KXD1 (UniProt Q9BQD3),inactive: -0.002
